## Primary screen of a compound library

Protein sequences, listed by entry. Tags and fused reporters are not part of them.
UniProt P9WPC5, whole entry: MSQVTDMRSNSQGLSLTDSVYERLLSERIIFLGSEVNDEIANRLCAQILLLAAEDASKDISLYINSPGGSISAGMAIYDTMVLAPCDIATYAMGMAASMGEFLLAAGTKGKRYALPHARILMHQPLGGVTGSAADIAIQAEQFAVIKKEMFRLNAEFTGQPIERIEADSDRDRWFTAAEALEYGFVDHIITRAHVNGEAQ
UniProt P9WPC3, whole entry partner: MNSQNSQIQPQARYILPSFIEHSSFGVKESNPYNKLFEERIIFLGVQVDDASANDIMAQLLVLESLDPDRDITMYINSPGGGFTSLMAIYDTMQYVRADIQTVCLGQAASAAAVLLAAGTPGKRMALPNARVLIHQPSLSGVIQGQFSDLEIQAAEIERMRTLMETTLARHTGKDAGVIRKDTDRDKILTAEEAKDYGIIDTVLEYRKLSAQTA
UniProt P9WNZ1, whole entry: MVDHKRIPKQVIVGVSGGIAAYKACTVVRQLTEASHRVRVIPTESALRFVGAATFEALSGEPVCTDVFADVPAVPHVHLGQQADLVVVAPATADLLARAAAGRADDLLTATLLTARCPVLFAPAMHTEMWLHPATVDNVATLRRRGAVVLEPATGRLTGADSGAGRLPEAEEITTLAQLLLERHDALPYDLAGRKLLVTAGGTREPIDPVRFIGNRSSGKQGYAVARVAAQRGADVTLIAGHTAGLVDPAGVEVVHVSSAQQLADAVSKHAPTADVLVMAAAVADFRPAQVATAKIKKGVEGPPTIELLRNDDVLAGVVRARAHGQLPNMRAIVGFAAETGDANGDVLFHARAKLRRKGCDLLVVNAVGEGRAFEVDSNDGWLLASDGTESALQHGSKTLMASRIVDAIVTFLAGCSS

ClpP1P2: 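ClpP1P2, Mycobacterium tuberculosis (UniProt P9WPC5 and UniProt P9WPC3). Protease assay of ClpP1P2, read by the AMC dye that it sets free. Compounds at 50 µM. Direction is inferred from only a few compounds that gave an IC50; most scored high, so higher reads as stronger inhibition. Most other retested compounds had strongly negative values. Size under these conditions: about 69,000 compounds, about 10 of them at 50% or above in at least one test.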
CoaBC: 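Coenzyme A biosynthesis protein CoaBC, Mycobacterium tuberculosis (UniProt P9WNZ1). Enzyme assay of CoaBC with a phosphate dye (Biomol Green) read at 650 nm. Tested at 30 µM. Direction is inferred from only a few compounds that gave an IC50; most scored high, so higher reads as stronger inhibition. Most strong results did not repeat in a second test. Of about 67,000 compounds tested this way, about 40 (0.06%) reached 50% or more in at least one test.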
Toxoplasma: 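Assay of Toxoplasma gondii numbers, read through their beta-galactosidase reporter with a colour substrate. Compounds at 10 µM. The record gives no direction; the compounds picked for IC50 retests had high values, so higher reads as fewer parasites. Of about 67,000 compounds tested this way, about 260 (0.38%) reached 50% or more in at least one test.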

Values are the deposited “Percent Effect”, in %. The record does not define 0% and 100%; most values in the screen are far below 50% and negative numbers occur (in some assays of this library far below -100). Compounds were drawn at random from those tested, without regard to their results.

With COc1cccc(-n2nnc(C(=O)N3CCCC3)c2C)c1 the screen gave ClpP1P2: 14.34%; CoaBC: 2.85%; Toxoplasma: -18.87%. For COc1ccc(-c2nnc([C@H]3CCN(CC(C)(C)C)C3)o2)cc1 the result was ClpP1P2: -1.664%; CoaBC: 11.7%; Toxoplasma: 11.94%. O=C1CCC(=O)N1CCN1CCOC(c2ccsc2)C1 (centres undefined) read ClpP1P2: -11.43%; CoaBC: -2.439%; Toxoplasma: -0.8207%. With O=S1(=O)NC(c2ccnc(N3CCCC3)n2)=Nc2ccccc21 the screen gave ClpP1P2: -2.912%; CoaBC: 6.068%; Toxoplasma: 6.881%. For Cc1cc(CN2C[C@@H]3COC[C@]3(CNS(C)(=O)=O)C2)no1 the result was ClpP1P2: -8.727%; CoaBC: 0.7614%. For O=C(C1CCOCC1)N1C[C@H](OCc2cccnc2)[C@H]2COC[C@H]21 the result was ClpP1P2: -12.89%; CoaBC: -0.2469%. With c1nc(N2CCCC2Cn2cncn2)c2sccc2n1 (centres undefined) the screen gave ClpP1P2: -27.99%; CoaBC: 7.597%; Toxoplasma: 22.47%. Result for O=C([C@H]1CCCO1)N1Cc2nccn2CC(COc2cccnc2)C1 (some centres undefined) was ClpP1P2: -13.31%; CoaBC: -13.69%; Toxoplasma: 19.03%.

Result for O=C(CCO)N1C[C@H]2CC[C@@H]1CN(C1Cc3ccccc3C1)C2 was ClpP1P2: -1.115%; CoaBC: 0.4292%. CN(Cc1ccc2c(c1)OCO2)Cc1nc(Cc2ccccc2)no1 gave ClpP1P2: 1.588%; CoaBC: -0.2415%; Toxoplasma: -8.651%. For CC(=O)NC1CCN(c2ccnc(C3CCNCC3)c2)CC1 the result was ClpP1P2: -10.86%; CoaBC: 1.84%. With CN1CCCC(C(=O)N2CCC(Oc3ccccn3)CC2)C1 (centres undefined) the screen gave ClpP1P2: -8.337%; CoaBC: 1.903%; Toxoplasma: 2.059%. For CNS(=O)(=O)CCCN1CCCCCC1c1ccc(C)o1 (centres undefined) the result was ClpP1P2: -26.09%; CoaBC: 4.146%; Toxoplasma: 4.854%. CCN1CCn2c(C)cnc2C12CCN(C(=O)CC(C)C)CC2.O=C(O)C(F)(F)F.O=C(O)C(F)(F)F read Toxoplasma: -11.22%. Result for Cc1nn(C)c(C)c1C(=O)N1CCN(C(=O)CC2CCCCC2)CC1 was ClpP1P2: -13.45%; CoaBC: 6.88%; Toxoplasma: 12.26%. For CN[C@H]1CC[C@]2(CC1)CNC(=O)c1cc(C)ccc1O2 the result was ClpP1P2: -4.171%; CoaBC: -4.585%; Toxoplasma: -13.39%.

CCOC(=O)COc1nc(CC(C)C)c2c(c1C#N)CCC2 read ClpP1P2: 12.29%; CoaBC: 0.2545%; Toxoplasma: 8.135%. Result for CCc1nc(CN(C)C2CCN(CCC(=O)N3CCCCC3)C2)no1 (centres undefined) was ClpP1P2: -33.14%; CoaBC: 0.4545%; Toxoplasma: -5.998%. For CCc1[nH]c(C2(N)CCCC2)nc(=O)c1C the result was ClpP1P2: -2.893%; CoaBC: -1.869%; Toxoplasma: 1.277%. With CCN(C)C(=O)c1cccc(S(=O)(=O)NCCc2csc(N)n2)c1 the screen gave ClpP1P2: -9.982%; CoaBC: 5.109%; Toxoplasma: -8.638%. OCCN1CCCC(c2nccnc2Oc2ccc(F)cc2)C1 (centres undefined) read ClpP1P2: -10.36%; CoaBC: 1.115%; Toxoplasma: -34.68%. For COCCN1CCn2cc(CNC(=O)C3CCC3)nc2C1 the result was ClpP1P2: 1.566%; CoaBC: -8.143%; Toxoplasma: 4.789%. Result for Cc1nn(C)c(C)c1C1CCCN1Cc1nc2ccccc2c(=O)[nH]1 (centres undefined) was ClpP1P2: -17.55%; CoaBC: -16.09%; Toxoplasma: -14.99%.

From ChEMBL document CHEMBL3988442, “University of Dundee, Small-Polar-MMV Screening Library” (2021).